The source of these data is paper doi:10.1101/354316.

This assay deals with T1, FLAG-LRCH4 (human) (UniProt O75427).
T1 sequence: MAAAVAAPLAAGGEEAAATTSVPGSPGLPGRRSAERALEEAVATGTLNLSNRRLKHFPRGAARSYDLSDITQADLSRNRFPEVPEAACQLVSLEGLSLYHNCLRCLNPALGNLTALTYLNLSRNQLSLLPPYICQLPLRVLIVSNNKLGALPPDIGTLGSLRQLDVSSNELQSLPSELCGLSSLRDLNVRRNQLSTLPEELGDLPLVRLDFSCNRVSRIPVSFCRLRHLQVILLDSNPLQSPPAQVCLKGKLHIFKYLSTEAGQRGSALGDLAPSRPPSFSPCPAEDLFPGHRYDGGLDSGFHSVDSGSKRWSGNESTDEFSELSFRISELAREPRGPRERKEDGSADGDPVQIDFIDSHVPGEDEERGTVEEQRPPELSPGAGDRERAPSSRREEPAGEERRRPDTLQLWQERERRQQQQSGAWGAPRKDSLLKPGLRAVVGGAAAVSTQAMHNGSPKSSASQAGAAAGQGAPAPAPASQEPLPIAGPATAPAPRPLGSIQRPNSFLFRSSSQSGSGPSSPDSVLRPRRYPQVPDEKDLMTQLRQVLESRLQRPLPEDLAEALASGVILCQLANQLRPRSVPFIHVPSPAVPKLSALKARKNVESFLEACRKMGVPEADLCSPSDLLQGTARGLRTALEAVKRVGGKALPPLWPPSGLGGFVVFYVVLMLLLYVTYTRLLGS
The assay can be described thus: co-IP.

Results are given in words; binding and its absence hold for the method and conditions named. Binding seen in cells or lysates may run through a third protein. A result given as binding can be weak or reduced; the word gives no strength. Sequences can lack the tags named with a protein.

“mCherry-tagged DOCK7 fragment (DHR2 domain) (human) (domain or fragment)”: the binding result was “binds”.
